Assay results from patent US20250042935 (published 2025).
Values joined by “and” are separate entries in the source; they are usually repeats but may differ in a detail not shown here. Equal values may be shown once.

Assay: Fmoc solid-phase peptide synthesis; pre-loaded Fmoc-amino acid Wang resins (~0.34 mmol/g loading); DIC, oxyma, 2,4,6-collidine
Settings: late stage modification step; TABLE-US-00006 r42

SFSGFGSPLDRLSAGSVDHKGKQRKVVDHPKRRFGIPMDRIGRNRLSNSR
step yield: 57% and 66%
